Tested on: rat spinal nerve ligation (SNL)/Chung model of neuropathic pain
Experiment: Spinal nerve ligation (SNL)/Chung model, tactile allodynia, electronic von Frey test on lesioned paw
Format: in vivo
Settings: 128 mg/kg p.o., inter-group comparison
Protocol: Objective: The efficacy of Compound A was assessed using the rat spinal nerve ligation (SNL)/Chung model of neuropathic pain. The SNL model in rats was developed as described previously (Chung J M, Kim H K, Chung K. “Segmental spinal nerve ligation model of neuropathic pain.” Methods Mol. Med. 99 (2004) 35-45).
Study Design. Briefly, on Day 0, von Frey and cold plate tests were used for baseline measurements of tactile and cold allodynia respectively. Post-baseline measurements, rats (171-209 g male Sprague Dawley) were anesthetized and an incision at the L4-S2 level was performed to expose the left L5 nerve. […] On Day 13, post-surgery baselines for tactile and cold allodynia were measured to verify neuropathic pain. […]
Rats were placed under an inverted acrylic plastic box on a grid floor. The tip of an electronic von Frey probe was then applied with increasing force to the surgery hind paw and the force required to induce paw-withdrawal was automatically recorded. The procedure was carried out 3 times and the mean paw withdrawal force was calculated. […]

CN1CC[C@]23c4c5ccc(O)c4O[C@H]2[C@@H](O)C=C[C@H]3[C@H]1C5.Cl [Morphine, Morphine hydrochloride, reference compound]
Delta from baseline of force, significance compared with Vehicle (p.o.), column c (Day 14, test 1 h after administration): *** (*** = p < 0.001)
Delta from baseline of force, significance compared with Vehicle (p.o.), column c (Day 18, test 1 h after administration): *** (*** = p < 0.001)
